Results on one substance are retold here after article PMC10851605.

Chains of the proteins cited; added tags and fusions are not shown.
UniProt P29350: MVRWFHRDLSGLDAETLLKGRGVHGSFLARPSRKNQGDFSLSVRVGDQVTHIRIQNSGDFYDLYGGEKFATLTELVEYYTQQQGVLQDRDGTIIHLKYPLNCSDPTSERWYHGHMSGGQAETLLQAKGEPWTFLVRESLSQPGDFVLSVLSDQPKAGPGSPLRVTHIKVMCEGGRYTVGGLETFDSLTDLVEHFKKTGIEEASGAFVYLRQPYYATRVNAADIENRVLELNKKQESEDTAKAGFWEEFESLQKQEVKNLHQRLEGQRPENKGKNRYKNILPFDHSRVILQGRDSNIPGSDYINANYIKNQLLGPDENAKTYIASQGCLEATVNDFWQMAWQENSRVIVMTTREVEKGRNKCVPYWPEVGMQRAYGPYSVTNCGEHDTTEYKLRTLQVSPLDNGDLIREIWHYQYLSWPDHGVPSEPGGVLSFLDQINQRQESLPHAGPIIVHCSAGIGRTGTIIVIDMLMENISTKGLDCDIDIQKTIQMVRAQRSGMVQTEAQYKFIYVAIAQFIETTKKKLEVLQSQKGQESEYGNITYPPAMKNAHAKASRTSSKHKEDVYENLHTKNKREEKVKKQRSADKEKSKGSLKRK
UniProt P14618: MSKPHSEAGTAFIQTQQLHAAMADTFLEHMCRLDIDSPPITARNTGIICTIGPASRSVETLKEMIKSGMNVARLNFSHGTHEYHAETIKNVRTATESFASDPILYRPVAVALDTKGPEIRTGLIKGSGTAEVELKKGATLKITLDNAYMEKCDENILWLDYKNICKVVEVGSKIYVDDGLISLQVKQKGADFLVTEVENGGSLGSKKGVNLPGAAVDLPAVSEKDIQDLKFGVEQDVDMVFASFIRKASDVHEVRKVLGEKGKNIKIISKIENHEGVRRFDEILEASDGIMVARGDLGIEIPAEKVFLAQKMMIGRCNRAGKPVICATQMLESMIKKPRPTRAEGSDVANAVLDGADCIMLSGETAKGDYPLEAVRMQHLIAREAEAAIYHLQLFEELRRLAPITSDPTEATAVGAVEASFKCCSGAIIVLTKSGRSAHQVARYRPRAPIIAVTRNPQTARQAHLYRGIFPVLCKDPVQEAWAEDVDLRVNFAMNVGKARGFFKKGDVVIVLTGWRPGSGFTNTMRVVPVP

The experiment addresses SHP1 (human (endogenous in Jurkat)) (UniProt P29350). Kind of experiment: co-IP; endogenous SHP1, PKM2 and LDHB each captured with its antibody on protein A/G agarose beads from Jurkat cell lysate, 4 °C overnight; detection by western blot; mouse IgG as control. Background: In western blotting, separated proteins are transferred to a membrane and probed.

No constants are given. Whether binding was seen depends on the method and setting. Binding seen in cells or lysates may run through a third protein. Some results given as binding are weak or reduced against the parent protein; the word gives no strength.

Consider “pyruvate kinase M2 (PKM2) (from UniProt P14618 1-531) (enzyme)”, for which the binding result is given as “binds”.
